Results are given in words; binding and its absence hold for the method and conditions named. Some results given as binding are weak or reduced against the parent protein; the word gives no strength.

We go through 3 molecules from patent publication US20240270803A1 (Daiichi Sankyo, published 2024).

In this test the target is HTRA1 protease domain HTRA1 (cat) (human). Description: immunoprecipitation method: TALON resin capture of His tag-fused HTRA1 (cat), SDS-PAGE.

B1: peptide derivative H322AT (designed binder)
chain: DPQFGLFSKYRTPNCSQHEGMACYALYEPVCGSDMSTYANECTLCMKIREGGHNIKIIRNGPCGG
Consider B1, for which the binding entry is recorded as “binds”.

B2: peptide H308 (designed binder)
chain: DPQFGLFSKYRTPNCSDHAGMACVALYEPVCGSDMSTYENECVLCMKIREGGHNIKIIRNGPCGG
As for B2, the binding result was “binds”.

B3: peptide derivative H321AT (designed binder)
chain: DPQFGLFSKYRTPNCSDFDGMACYAFYEPVCGSDMSTYANECTLCMKIREGGHNIKIIRNGPCGG
Consider B3, for which the binding entry was “binds”.
